Test [1] concerns the target caspase‐8 (human (endogenous in HeLa, A549 and K562)) (UniProt Q14790). In words: co-IP; TRAIL complex II: HeLa cells stimulated with FLAG-lz-TRAIL (500 ng/ml); complex I-depleted lysates incubated overnight at 4°C with protein G beads coupled with anti-caspase-8 antibody (clone C20), Western blot.
For test [2], the target named is T1, caspase‐8 (human (endogenous in HeLa, A549 and K562)), Q14790.
T1 chain: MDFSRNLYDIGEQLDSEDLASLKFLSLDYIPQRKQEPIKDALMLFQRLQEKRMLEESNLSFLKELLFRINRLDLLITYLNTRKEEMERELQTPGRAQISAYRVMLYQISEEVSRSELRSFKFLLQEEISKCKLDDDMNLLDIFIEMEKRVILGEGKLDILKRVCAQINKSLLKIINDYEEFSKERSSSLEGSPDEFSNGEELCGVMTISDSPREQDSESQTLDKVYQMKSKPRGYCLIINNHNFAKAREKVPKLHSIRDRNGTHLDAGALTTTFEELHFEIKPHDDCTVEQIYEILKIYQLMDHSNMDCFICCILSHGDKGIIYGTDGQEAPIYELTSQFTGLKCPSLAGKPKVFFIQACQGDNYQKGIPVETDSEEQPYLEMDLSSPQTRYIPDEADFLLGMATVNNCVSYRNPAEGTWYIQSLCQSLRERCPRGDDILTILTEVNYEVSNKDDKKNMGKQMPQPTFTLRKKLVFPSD
The test is described as above. The settings on record: remark: other sources report otherwise.

The target of test [3] is T2, FADD (murine) (mouse (endogenous in MEFs)), Q61160.
T2 chain: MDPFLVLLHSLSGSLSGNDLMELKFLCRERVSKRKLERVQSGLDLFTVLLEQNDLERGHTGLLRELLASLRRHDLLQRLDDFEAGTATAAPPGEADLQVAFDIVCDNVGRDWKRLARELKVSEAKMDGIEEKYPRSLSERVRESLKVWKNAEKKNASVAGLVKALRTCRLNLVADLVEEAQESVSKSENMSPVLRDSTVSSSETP
In words: co-IP; WT and HOIP KO TNF KO MEFs, pre-treated with zVAD for 1 h, stimulated with iz-murine TRAIL (1 μg/ml); FADD-containing complexes precipitated with protein G beads coupled with anti-murine FADD antibody (clone M19) overnight at 4°C, Western blot. The settings on record: remark: other sources report otherwise.

Test [4] concerns the target T3, FADD (murine) (mouse (endogenous in MEFs)) (UniProt Q61160).
T3 sequence: T2 chain
The test is described as above.

These are yes or no findings as the source states them, for the method shown. Binding seen in cells or lysates may run through a third protein. Some binding calls cover weakened binding; strength is not graded here.

B1: SHARPIN (protein, UniProt Q9H0F6 1-387)
chain: MAPPAGGAAAAASDLGSAAVLLAVHAAVRPLGAGPDAEAQLRRLQLSADPERPGRFRLELLGAGPGAVNLEWPLESVSYTIRGPTQHELQPPPGGPGTLSLHFLNPQEAQRWAVLVRGATVEGQNGSKSNSPPALGPEACPVSLPSPPEASTLKGPPPEADLPRSPGNLTEREELAGSLARAIAGGDEKGAAQVAAVLAQHRVALSVQLQEACFPPGPIRLQVTLEDAASAASAASSAHVALQVHPHCTVAALQEQVFSELGFPPAVQRWVIGRCLCVPERSLASYGVRQDGDPAFLYLLSAPREAPATGPSPQHPQKMDGELGRLFPPSLGLPPGPQPAASSLPSPLQPSWSCPSCTFINAPDRPGCEMCSTQRPCTWDPLAAAST
As for B1, the binding entry in test [1] is “binds”.

B2: TRAF2, Q12933 1-501 (protein)
chain: MAAASVTPPGSLELLQPGFSKTLLGTKLEAKYLCSACRNVLRRPFQAQCGHRYCSFCLASILSSGPQNCAACVHEGIYEEGISILESSSAFPDNAARREVESLPAVCPSDGCTWKGTLKEYESCHEGRCPLMLTECPACKGLVRLGEKERHLEHECPERSLSCRHCRAPCCGADVKAHHEVCPKFPLTCDGCGKKKIPREKFQDHVKTCGKCRVPCRFHAIGCLETVEGEKQQEHEVQWLREHLAMLLSSVLEAKPLLGDQSHAGSELLQRCESLEKKTATFENIVCVLNREVERVAMTAEACSRQHRLDQDKIEALSSKVQQLERSIGLKDLAMADLEQKVLEMEASTYDGVFIWKISDFARKRQEAVAGRIPAIFSPAFYTSRYGYKMCLRIYLNGDGTGRGTHLSLFFVVMKGPNDALLRWPFNQKVTLMLLDQNNREHVIDAFRPDVTSSSFQRPVNDMNIASGCPLFCPVSKMEAKNSYVRDDAIFIKAIVDLTGL
On to B2, for which the binding result in test [2] is reported as “binds”.

B3: RIPK3 (murine), Q9QZL0 1-486 (enzyme)
chain: MSSVKLWPTGASAVPLVSREELKKLEFVGKGGFGVVFRAHHRTWNHDVAVKIVNSKKISWEVKAMVNLRNENVLLLLGVTEDLQWDFVSGQALVTRFMENGSLAGLLQPECPRPWPLLCRLLQEVVLGMCYLHSLNPPLLHRDLKPSNILLDPELHAKLADFGLSTFQGGSQSGSGSGSGSRDSGGTLAYLDPELLFDVNLKASKASDVYSFGILVWAVLAGREAELVDKTSLIRETVCDRQSRPPLTELPPGSPETPGLEKLKELMIHCWGSQSENRPSFQDCEPKTNEVYNLVKDKVDAAVSEVKHYLSQHRSSGRNLSAREPSQRGTEMDCPRETMVSKMLDRLHLEEPSGPVPGKCPERQAQDTSVGPATPARTSSDPVAGTPQIPHTLPFRGTTPGPVFTETPGPHPQRNQGDGRHGTPWYPWTPPNPMTGPPALVFNNCSEVQIGNYNSLVAPPRTTASSSAKYDQAQFGRGRGWQPFHK
For the molecule B3, the binding entry in test [3] is “binds”.

B4: MLKL (murine) (protein, UniProt Q9D2Y4 1-472)
chain: MDKLGQIIKLGQLIYEQCEKMKYCRKQCQRLGNRVHGLLQPLQRLQAQGKKNLPDDITAALGRFDEVLKEANQQIEKFSKKSHIWKFVSVGNDKILFHEVNEKLRDVWEELLLLLQVYHWNTVSDVSQPASWQQEDRQDAEEDGNENMKVILMQLQISVEEINKTLKQCSLKPTQEIPQDLQIKEIPKEHLGPPWTKLKTSKMSTIYRGEYHRSPVTIKVFNNPQAESVGIVRFTFNDEIKTMKKFDSPNILRIFGICIDQTVKPPEFSIVMEYCELGTLRELLDREKDLTMSVRSLLVLRAARGLYRLHHSETLHRNISSSSFLVAGGYQVKLAGFELSKTQNSISRTAKSTKAERSSSTIYVSPERLKNPFCLYDIKAEIYSFGIVLWEIATGKIPFEGCDSKKIRELVAEDKKQEPVGQDCPELLREIINECRAHEPSQRPSVDGRSLSGRERILERLSAVEESTDKKV
Regarding B4, in test [4], the binding result was “binds”.

The values above are taken from paper PMC5412822.
